Laboratory results as given in PubChem BioAssay AID587 (National Center for Advancing Translational Sciences (NCATS), 2007).
The campaign covered roughly 59,000 compounds. About 35 (0.06%) were called active. The inconclusive results got no clear call from the source; some entries with a clear call stand among them for comparison. No stated cut-off is given here; in the data, active means max dye-equivalent concentration above about 10 nM; inconclusive means between about 1.1 nM and that limit; inactive means weaker than that.

Test: qHTS Assay for Spectroscopic Profiling in Texas Red Spectral Region
Conditions: Compound fluorescence, Texas Red channel, 547/618 nm; hits give high values
How it was run: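 Spectral interference profiling: each compound concentration's relative fluorescence, read with a 547 nm excitation and 618 nm emission filter pair, was normalized to a per-plate Texas Red standard curve.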

Row | SMILES | max dye-equivalent concentration
1 | COc1ccc(C2(C(=O)Nc3cc(C)on3)CCOCC2)cc1 | inconclusive: 1.2 nM
2 | COc1ccc(-n2c(=O)c3ccccc3n(CC(=O)NC3CCCC3)c2=O)cc1 | inconclusive: 1.3 nM
3 | COCCNC(=O)COc1cccc(Oc2ccccc2)c1 | inconclusive: 1.3 nM
4 | Cc1cccc(N(C)C(=O)CCS(=O)(=O)c2cccc3nonc23)c1 | inconclusive: 1.5 nM
5 | COc1ccc([C@H]2Sc3ccccc3N(CCN(C)C)C(=O)[C@H]2OC(C)=O)cc1 | inconclusive: 1.1 nM
6 | O=C(Nc1ccc(CN2CCOCC2)cc1)c1cccc(F)c1 | inconclusive: 1.1 nM
7 | Cn1c(=O)[nH]c(=O)c2c1nc(N1CCOCC1)n2CCCSc1ncccn1 | inconclusive: 1.1 nM
8 | COc1nc2ccccc2c(=O)n1OCC(C)C | inconclusive: 2.3 nM
9 | CCCCC(C(=O)O)C(C)CC(=O)Nc1cccc(C(=O)O)c1 (stereo unspecified) | inconclusive: 1.1 nM
10 | O=C1CSC(c2cccc(F)c2)N1c1ccccc1F (stereo unspecified) | inactive
11 | Cc1nnc(NC(=O)CSc2nnc(Cc3cccn3C)n2CCc2ccccc2)s1 | inconclusive: 1.1 nM
12 | CCOC(=O)c1cnc(N(C)C)nc1SC(=N)N | inconclusive: 2 nM
13 | COc1ccc(CCNC(=O)CN(C)S(=O)(=O)c2cccc3nsnc23)cc1OC | inconclusive: 1.7 nM
14 | COc1ccc(-n2nnnc2SCC(=O)Nc2cccc(C)n2)cc1OC | inconclusive: 1.1 nM
15 | CCn1cc(C(=O)O)c(=O)c2ccc(Cc3ccccc3)nc21 | inconclusive: 1.1 nM
16 | CN(C)c1ccc(-c2nc(N(C)Cc3ccco3)c3ccccc3n2)cc1 | inconclusive: 1.3 nM
17 | Cc1noc(C)c1S(=O)(=O)NCC(=O)O | inactive
18 | COCCn1c(C)nc2oc3ccc(Br)cc3c(=O)c2c1=O | inconclusive: 2 nM
19 | O=C(CCCCCN1C(=O)c2ccccc2C1=O)NCc1ccco1 | inconclusive: 1.7 nM
20 | Cc1ccc2cc(CN(CC3CCCO3)C(=O)NC3CCCCC3)c(=O)[nH]c2c1C (stereo unspecified) | inconclusive: 1.3 nM
21 | CC(C)N(Cc1cc2ccccc2[nH]c1=O)C(=O)C1CCCCC1 | inconclusive: 2.1 nM

Nos. 11 to 12 of the list above:
Row | SMILES | max dye-equivalent concentration
11 | Cc1nnc(NC(=O)CSc2nnc(Cc3cccn3C)n2CCc2ccccc2)s1 | inconclusive: 1.1 nM
12 | CCOC(=O)c1cnc(N(C)C)nc1SC(=N)N | inconclusive: 2 nM

Continued.

Row | SMILES | max dye-equivalent concentration
22 | O=C(CN(Cc1ccco1)C(=O)Cn1nnc(-c2ccc(F)cc2)n1)NC1CCCC1 | inconclusive: 1.2 nM
23 | CCOC(=O)C1=C(CSc2n[nH]c(N)n2)NC(=O)NC1C (stereo unspecified) | inconclusive: 2.6 nM
24 | N#Cc1ccc(CN2CC[C@@]3(CCCN(C(=O)c4cc(C(F)(F)F)cc(C(F)(F)F)c4)C3)C2)cc1 | inactive
25 | Cc1cc(C)nc(N2CCCC(C(=O)Nc3nc4ccc(S(C)(=O)=O)cc4s3)C2)n1 (stereo unspecified) | inconclusive: 1.7 nM
26 | Cc1nn2cc(-c3ccc(N)cc3)nc2s1 | inconclusive: 1.5 nM
27 | COc1ccccc1Nc1nc(N)nc(-c2cc3ccccc3o2)n1 | inconclusive: 1.4 nM
28 | Cc1nc2cc3nc(C)sc3cc2s1 | inconclusive: 1.1 nM
29 | CC(=O)N1C(=O)C(=C2C=C(C)OC(C)=C2)c2ccccc21 | inactive
30 | COc1cccc(-c2nnc(SCC(=O)Nc3ccc(S(N)(=O)=O)cc3)n2C)c1 | inconclusive: 1.1 nM
31 | Cc1cccc(NC(=O)Cn2cnc3sc(C)c(S(=O)(=O)N4CCC(C)CC4)c3c2=O)n1 | inconclusive: 1.2 nM
32 | CC(C)NCC(O)COc1c(F)cc(Br)cc1F (stereo unspecified) | inconclusive: 1.1 nM
33 | CC1CCCC(C)N1C(=O)COC(=O)c1ccc2c(c1)OCO2 (stereo unspecified) | inconclusive: 1.8 nM
34 | Cn1nc(-c2ccc(C(=O)NCC3CCCO3)cc2)c2ccccc2c1=O (stereo unspecified) | inconclusive: 1.1 nM
35 | O=C(NCc1ccccc1F)c1cccs1 | inconclusive: 1.5 nM
36 | CC(C)N1CC2=C(OC(N)=C(C#N)C2c2cccnc2)/C(=C/c2cccnc2)C1 (stereo unspecified) | active: 13 nM
37 | CCc1ccc(NC(=O)CSc2nnc(-c3ccccn3)n2C)cc1 | inconclusive: 1.5 nM
38 | CC1CC(C)CN(CCCNC(=O)CNC(=O)Cn2ccc3ccccc3c2=O)C1 (stereo unspecified) | inconclusive: 1.5 nM
39 | O=C(CSc1nnc(-c2ccncc2)o1)Oc1ccccc1 | inconclusive: 1.5 nM
40 | COc1ccc2[nH]cc(CCNc3ccnc(-c4ccoc4)n3)c2c1 | inconclusive: 1.3 nM
41 | COc1c2occc2c(OC)c2c(=O)cc(C)oc12 | inconclusive: 1.4 nM
